Among the data in article PMC7819943, “Rice protein-binding microarrays: a tool to detect cis-acting elements near promoter regions in rice” are binding signal values, retold here.

Some of the results follow.

This assay has as its target T1, OsSMF1 (Oryza sativa, UniProt Q6ZLB0 1-436).
T1 sequence: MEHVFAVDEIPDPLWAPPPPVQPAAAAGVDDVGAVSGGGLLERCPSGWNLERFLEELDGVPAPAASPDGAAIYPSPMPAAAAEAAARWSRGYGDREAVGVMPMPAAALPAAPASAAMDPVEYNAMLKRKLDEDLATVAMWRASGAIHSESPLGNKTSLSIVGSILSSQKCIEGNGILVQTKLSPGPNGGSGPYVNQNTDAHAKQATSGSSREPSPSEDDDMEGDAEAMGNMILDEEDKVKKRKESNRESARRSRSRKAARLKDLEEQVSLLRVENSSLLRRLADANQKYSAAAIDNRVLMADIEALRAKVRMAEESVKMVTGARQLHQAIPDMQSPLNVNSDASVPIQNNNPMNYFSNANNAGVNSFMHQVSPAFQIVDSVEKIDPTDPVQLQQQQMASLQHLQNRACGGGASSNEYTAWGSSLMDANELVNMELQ
Put plainly: protein-binding microarray (RPBM); PBS, 2% BSA, 51.3 ng/ul salmon testes DNA, 50 uM zinc acetate, 200 nM TF, 25 C, 1 h; high values mean tight binding. The note with it: protein: recombinant; tags: N-terminal polyhistidine and DsRed monomer fusion (pET32a); chain copies: 2; label: CyDye5-dUTP incorporated in the synthesized complementary strand; 3' TTTTT single-stranded linker to array surface; dsDNA, one strand shown. A digest of the protocol: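 The binding signal for each feature is its fluorescence intensity in arbitrary units. An Axon 4000B scanner was used to read a custom Agilent array that had been made double-stranded with Cy5-dUTP primer extension, blocked with 2% BSA, incubated at 25 °C for 1 h with 200 nM protein in PBS, 2% BSA, salmon testes DNA and 50 µM zinc acetate, and washed. The protein was an N-terminal polyhistidine–DsRed transcription factor fusion from E. coli BL21-CodonPlus, purified on Ni–NTA.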
As to “TACGCTCTCGCAGCGCCTCCACGTGCCCGTGTCACGCTCGCGGAGTCACCTAGTGCAG”, the binding signal is 6640 fluorescence intensity (a.u.).

In the case of “CGTATCCGTGTCTCGATCTGGGCCCCACCTGTCAGTGTCTCGGAGTCACCTAGTGCAG”, the binding signal is 4010 fluorescence intensity (a.u.). Next, “CTGGAATGGTCTCGGAGGGTTCTTAGCTGGCTTTTCGATTCGGAGTCACCTAGTGCAG”: 3500 fluorescence intensity (a.u.). Next, “CGATTTTCTATTTGCTTCCAACGCTGAATGTACGTATCTGCGGAGTCACCTAGTGCAG”: 3680 fluorescence intensity (a.u.); “GGAAGAGCCCGTGATGGTGTTACGTCCACGTCAGCCCAGCCGGAGTCACCTAGTGCAG”: 35800 fluorescence intensity (a.u.). Next, “GCGTGACCCGCGTTTAGACTTTTGACTAGCCAACTCACACCGGAGTCACCTAGTGCAG”: 3740 fluorescence intensity (a.u.). “ACTCAATAGAAGTGAGTCTAATGAATCTAGTCAGATTGGCCGGAGTCACCTAGTGCAG”: the binding signal is 4060 fluorescence intensity (a.u.). Next, “TGATCCCCGCCGGCCGCCGCCGCCCTCGCAACCCTCGCAGCGGAGTCACCTAGTGCAG”: 3470 fluorescence intensity (a.u.); “CAAATCTAACCCTGTCATCGATGTGTGTTATCGGTGACGGCGGAGTCACCTAGTGCAG”: 5670 fluorescence intensity (a.u.); “CGCCCGCTTCGACGACCACACGTGGGCTCGCCACGTGTCACGGAGTCACCTAGTGCAG”: 12400 fluorescence intensity (a.u.). Under “TACCATCCTGTGACGCTAGTGGCCACCTCCCTTCACGCAGCGGAGTCACCTAGTGCAG” stands 3500 fluorescence intensity (a.u.); under “TAGCGTTGATCTTTTGCTAATCTCTGAATCTAGCACGCGGCGGAGTCACCTAGTGCAG”, 3340 fluorescence intensity (a.u.); under “ACACCACTCTCTCGTTCTCTCTCTCTCTCCCCGTCTTCCTCGGAGTCACCTAGTGCAG”, 3290 fluorescence intensity (a.u.).

As to “GAGAGGAGGAAGACAGAGAGGAGAGATGAGATAGGATCAACGGAGTCACCTAGTGCAG”, the binding signal is 46200 fluorescence intensity (a.u.). Next, “AGCAGCTAGCAGCATCTGCATCAGGGTGGGCAGGTTAACGCGGAGTCACCTAGTGCAG”: 3180 fluorescence intensity (a.u.); “GCGATCTGTCTTTGTACGGCGGTAGCTGTAGTTGGACACGCGGAGTCACCTAGTGCAG”: 3290 fluorescence intensity (a.u.); “TGTGGTGTTGCATGTGTAGTAATATGTGCGCACGTATGTACGGAGTCACCTAGTGCAG”: 3630 fluorescence intensity (a.u.). Next, “CGGTGTTTGTAATTCATTTTATATAATGAAAATGGATTATCGGAGTCACCTAGTGCAG”: 44600 fluorescence intensity (a.u.); “GCATATGCCATTGAAAGCGAATATTCATGTGCATTACCACCGGAGTCACCTAGTGCAG”: 6940 fluorescence intensity (a.u.); “CTATTTTAGTTACGATGACAGCATCGTGTAGTCCAAATAGCGGAGTCACCTAGTGCAG”: 3480 fluorescence intensity (a.u.).

Take “CTTCTCAAGCAGGAGGAGGACTTGCCATGGTGTTGATTTGCGGAGTCACCTAGTGCAG”: the binding signal is 3740 fluorescence intensity (a.u.). Under “GATACACATCACCAGGTAGGTCCGCTAGGTGCGAAAGAGTCGGAGTCACCTAGTGCAG” stands 14500 fluorescence intensity (a.u.); under “AACCCATTCGGAGAGGTCGCCGAGTGGATTCGACGTTGGACGGAGTCACCTAGTGCAG”, 3200 fluorescence intensity (a.u.).

“AACGATGGTTTTATCCATTGTGACGTTGAGTGAGCCGGCTCGGAGTCACCTAGTGCAG”: the binding signal is 3190 fluorescence intensity (a.u.). Under “CTTGCCGCAAGACCACCGACCGTCGATTCCACGCCGCTCTCGGAGTCACCTAGTGCAG” stands 3800 fluorescence intensity (a.u.); under “CCAAGACCGCAGGCACAGGCGCCGGCGGCGCACACAACACCGGAGTCACCTAGTGCAG”, 5070 fluorescence intensity (a.u.); under “GCTCTGTCTGTGTGCGCCACGTACGTTATCGTCGACCGATCGGAGTCACCTAGTGCAG”, 11200 fluorescence intensity (a.u.). In the case of “GCTTGATCTCTTTCTAGCTCTACCGGCGGCGTGGCGGCGGCGGAGTCACCTAGTGCAG”, the binding signal was 3160 fluorescence intensity (a.u.). Next, “CCCCTTTTGCTTGCTGACAACCATTGAAACACTACCATAACGGAGTCACCTAGTGCAG”: 3230 fluorescence intensity (a.u.); “CAAACCACAGTGTTCCACGTCATCATCAATTGACAGCCGTCGGAGTCACCTAGTGCAG”: 37800 fluorescence intensity (a.u.); “CCGCTTCGCCCCGGCCGCCGCGTTCGCACGCTGCCTCCGTCGGAGTCACCTAGTGCAG”: 3400 fluorescence intensity (a.u.). “CCCGCCGCCGCCGGAGAAGCCTAGTGTTACGTTTACGGTTCGGAGTCACCTAGTGCAG”: the binding signal was 21300 fluorescence intensity (a.u.). On to “AGAATCTGTGTTCATGTGGATTTAATATTCTGAAATCTGCCGGAGTCACCTAGTGCAG”, for which the binding signal is 3430 fluorescence intensity (a.u.).

In the case of “TAGTATCCAAAGCTCAGCGAGGAGTACGTGTGCCGGCGCACGGAGTCACCTAGTGCAG”, the binding signal is 3160 fluorescence intensity (a.u.). Under “TGTTCGATCACAACGGCTTGTTTTCCTTTTCGCTTGCGTGCGGAGTCACCTAGTGCAG” stands 22700 fluorescence intensity (a.u.); under “CGGAACTAATTAACTAAAATTAAACCCCGCTTTCTCGGTCCGGAGTCACCTAGTGCAG”, 3170 fluorescence intensity (a.u.); under “CACTTGCTGTTCAGGTGTCATAAGCCATTCCTGGACTTCACGGAGTCACCTAGTGCAG”, 3250 fluorescence intensity (a.u.). Next, “CGCCTCGCATCTGTTTGGCTTCCACGCCACTGCTCTGCAACGGAGTCACCTAGTGCAG”: 3900 fluorescence intensity (a.u.); “ACCCTTTGCAAGCTGATGCATGAGTAATGCTTGCTGCTGACGGAGTCACCTAGTGCAG”: 4800 fluorescence intensity (a.u.). Under “CAACAACGGCGGCTTGATATGCCAGCTGTATGTTGATCTGCGGAGTCACCTAGTGCAG” stands 3960 fluorescence intensity (a.u.). “ACTGGCCGTGACGCATTTCAACCTCTTGATCTGAACTGCCCGGAGTCACCTAGTGCAG”: the binding signal was 3620 fluorescence intensity (a.u.). With “TAAAACCGGGGCACACGTCAGCGGCCTACTAGACACTTCCCGGAGTCACCTAGTGCAG”, the binding signal was 12300 fluorescence intensity (a.u.).
